From PubChem BioAssay AID2685 (National Center for Advancing Translational Sciences (NCATS), 2010)
Some of the results follow. Shown are side measurements of this screen, not its main read-out; they come without a call. Compounds called inactive in the main read-out are mostly missing here. The note in brackets gives the kind of curve behind each potency; many fits are weak.

Assay: qHTS Assay for Lipid Storage Modulators in Drosophila S3 Cells;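 on cell number change: cells counted by Cell Tracker Red CMTPX staining in the red channel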
Settings: BODIPY lipid droplet fluorescence, 18-24 h; for cell number change: measured here: cell count max response, cells fed with added oleic acid
Procedure, shortened: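 Drosophila S3 cells loaded with oleic acid (400 uM, as added) and compounds at several concentrations; lipid droplets imaged by 488-nm laser-scanning cytometry, 500–530 nm intensity and object ratio to cell channel. Percent activity normalized to 20 uM Triacsin C.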

[1] = measured here: lipid fluorescence (Fed channel) AC50, cells fed with added oleic acid
[2] = measured here: cell number channel AC50, cells fed with added oleic acid

| SMILES | cell number change | AC50 [1] | AC50 [2] |
| --- | --- | --- | --- |
| C=CCn1c(N)cc(=O)nc1SCC(=O)Nc1ccc(C(=O)OC)cc1 | -1.39% | 29.1 µM [rising, single point] |  |
| COc1ccccc1N=Nc1nc(-c2ccccc2)c(-c2ccccc2)[nH]1 | -34.1% | 25.9 µM [falling, single point] | 29.1 µM [falling, single point] |
| O=C(CCCN1CCC(c2ccccc2)C1)c1ccc2c(c1)OCCO2 (configuration not stated) | 15.1% | 4.11 µM [falling, single point] |  |
| Cc1cc(NC(=O)CSc2nc3ccccc3c(=O)n2Cc2ccccc2)no1 | 28.6% | 1.84 µM [rising, full curve] | 0.82 µM [rising, full curve, poor fit] |
| CCOc1ccc(Br)cc1/C=N/O | 98% |  | 29.1 µM [rising, single point] |
| COc1ccc(Cl)cc1C(=O)Nc1ccc(NC(=O)c2ccco2)cc1 | 21.8% |  | 0.13 µM [rising, full curve, poor fit] |
| COc1ccc2nc3ccccc3nc2c1N | -49% |  | 32.6 µM [falling, single point] |
| CN1CCN(c2ccc(NC(=O)c3ccc4c(c3)OCCO4)cc2)CC1 | 8.6% |  |  |
| COc1cc2ccc(=O)oc2c(O[C@@H]2O[C@H](CO)[C@@H](O)[C@H](O)[C@H]2O)c1O | 1.39% | 29.1 µM [falling, partial curve, poor fit] |  |
| CC(Cc1ccccc1)NC(=O)CN1C(=O)c2ccccc2S1(=O)=O (configuration not stated) | 34.6% | 0.291 µM [rising, partial curve, poor fit] |  |
| CCc1nnc(NC(=O)[C@@H]2CCCN2S(=O)(=O)c2ccc3c(c2)OCCO3)s1 | -2.76% | 6.51 µM [falling, partial curve] |  |
| CS(=O)(=O)N(Cc1ccccc1)c1ccccc1C(=O)O | -17.7% | 3.26 µM [falling, full curve, poor fit] |  |
| COc1ccc(C(=O)Nc2c(Cl)cc(Cl)cc2C(=O)N2CCC(C)CC2)cc1 | 4.08% | 4.11 µM [rising, single point] |  |
| Cc1nn(-c2ccc(Cl)cc2Cl)c(C)c1C(=O)O | 15.6% |  |  |
| O=S(=O)(c1cccc(-c2n[nH]c(=S)n2Cc2ccccc2)c1)N1CCOCC1 | 9.29% | 14.6 µM [rising, single point] | 4.11 µM [rising, single point] |
| CCCn1c(=O)c2ccccc2n2c(=S)[nH]nc12 | -47.6% | 14.6 µM [falling, partial curve] | 11.6 µM [falling, partial curve] |
| Cc1ccccc1Nc1c(-c2ccncc2)nc2ccc(Br)cn12 | 4.65% | 13 µM [rising, partial curve, poor fit] |  |
| COc1cccc(COC(=O)C2CCN(S(=O)(=O)c3ccc(C)cc3)CC2)c1OC | 31.7% | 20.6 µM [rising, single point] | 11.6 µM [rising, single point] |
| Cc1nc2ccc(Cl)cc2c(-c2ccccc2Cl)c1CC(=O)O | 1.64% | 13 µM [rising, partial curve, poor fit] |  |
| CCOc1ccc(C2=Nn3c(nnc3-c3ccccc3OC)SC2)cc1 | -12.2% |  |  |

| SMILES | cell number change | AC50 [1] | AC50 [2] |
| --- | --- | --- | --- |
| O=C(N/N=C/c1ccc(OC(F)F)cc1OC(F)F)NC1CCCCC1 | -45.2% |  | 2.31 µM [rising, partial curve] |
| CCCCNS(=O)(=O)c1ccc(OC)cc1 | 1.42% | 2.91 µM [falling, partial curve, poor fit] |  |
| CCc1cc2c(=O)c(-n3cnc4ccccc43)coc2cc1O | -22.1% |  |  |
| CCOc1ccc2[nH]c(SCC(=O)OC)c([N+](=O)[O-])c2c1 | -12.5% |  |  |
| Cc1ccc(C)n1NC(=O)c1ccccc1O | -5.13% | 7.31 µM [rising, partial curve, poor fit] |  |
| O=C(CSc1nnc2ccc(-c3ccccn3)nn12)Nc1ccccc1F | 21.6% | 1.03 µM [rising, full curve] |  |
| O=C1OCc2ccc(NC(=O)c3sccc3Cl)cc21 | 28.4% | 0.517 µM [rising, partial curve, poor fit] |  |
| COC(=O)c1c(NC(=O)c2ccccc2)sc(Cc2ccccc2)c1C |  | 0.291 µM [rising, full curve] | 0.82 µM [rising, single point] |
| C(=N\Nc1nncc2ccccc12)/c1ccccn1 | 6.67% |  |  |
| COc1ccccc1CNC(=O)CCS(=O)(=O)c1cccs1 |  |  | 0.58 µM [falling, single point] |
| Cc1nnc(SCC(=O)Nc2ccc(C(N)=O)cc2)n1-c1ccccc1 | 13.2% |  |  |
| O=C(CN1C(=O)C2C3C=CC(C3)C2C1=O)OCC(=O)c1ccc(Br)cc1 (configuration not stated) | -15.5% |  |  |
| COc1ccc(OCC(=O)N(Cc2ccc(C)o2)C2CCS(=O)(=O)C2)cc1 (configuration not stated) | 6.65% | 0.103 µM [falling, full curve, poor fit] |  |
| COc1ccc(C2C(C(=O)N3CCOCC3)=C(C)NC3=C2C(=O)CC(C)(C)C3)cc1O (configuration not stated) | -5.83% |  |  |
| CCOC(=O)C1CCN(C(=O)CSc2cc(=O)n(CC)c3ccccc23)CC1 |  | 0.291 µM [rising, partial curve, poor fit] | 1.46 µM [rising, partial curve] |
| CC(C)C(O)(CC#CCN1CCCC1)c1ccccc1 (configuration not stated) | -45.9% |  | 6.51 µM [falling, full curve, poor fit] |
| O=C(NCCCn1ccnc1)c1cc(C2CC2)on1 | 19% | 5.8 µM [rising, full curve] |  |
| O=C(c1cc2cc(Br)ccc2oc1=O)N1CCN(c2ccccn2)CC1 | 1.37% |  |  |
| Cc1nnc(SCC(=O)c2ccc(C(C)C)cc2)s1 | 3.08% | 29.1 µM [falling, single point] |  |
| Cc1ccc(S(=O)(=O)N2CCc3ccccc3C2)cc1C | -24.1% |  |  |

| SMILES | cell number change | AC50 [1] | AC50 [2] |
| --- | --- | --- | --- |
| Cc1c(CC(=O)N2CCN(C(=O)C3COc4ccccc4O3)CC2)c(=O)oc2c(O)c(O)ccc12 (configuration not stated) | -30.1% | 6.51 µM [falling, partial curve, poor fit] | 5.8 µM [falling, single point] |
| COc1ccc(NC(=O)CN(C)Cc2c(F)cccc2Cl)cc1S(=O)(=O)N1CCCCC1 | 37.4% | 0.651 µM [rising, full curve, poor fit] | 1.3 µM [rising, full curve] |
| Cn1c(=O)c2c(ncn2CC(=O)N2CCOCC2)n(C)c1=O | -30.8% | 23.1 µM [falling, partial curve, poor fit] | 0.651 µM [falling, full curve, poor fit] |
| O=C(c1cn(-c2ccccc2)nc1-c1cccnc1)N1CCN(S(=O)(=O)c2ccccc2F)CC1 | -27.4% |  |  |
| c1cc(-c2nnc3sc(C4CCCCC4)nn23)ccn1 | -9.22% |  |  |
| CCOC(=O)C1=CC[C@]2(C)c3c(c4ccccc4n3C)C(=O)C1N2C | 11% | 29.1 µM [falling, single point] |  |
| COc1ccc(-c2noc(CCC(=O)NCCCN3CCC(Cc4ccccc4)CC3)n2)cc1 | -141% | 0.58 µM [falling, single point] | 3.66 µM [falling, partial curve] |
| Cc1cc(=O)nc2c3ccccc3n(CC(=O)NC3CCCCC3)n12 | -15.7% | 2.06 µM [falling, partial curve] |  |
| CSCCC(NS(=O)(=O)c1ccc(Cl)cc1)C(=O)OCC(=O)NC12CC3CC(CC(C3)C1)C2 (configuration not stated) | -52.5% |  | 20.6 µM [falling, partial curve, poor fit] |
| COc1ccc(OC(=O)C(C)N2C(=O)c3ccccc3C2=O)cc1 (configuration not stated) | 18.5% | 0.58 µM [rising, single point] |  |
| Oc1ccc(CN2CCCCC2)nc1-c1ccccc1 | -1.33% | 6.51 µM [rising, single point] |  |
| Cc1cc(C)nc(NC(=O)c2cc(-c3ccc(C)s3)nc3ccccc23)c1 | 14.1% | 2.31 µM [rising, full curve] | 2.31 µM [rising, single point] |
| CCCC(=O)NC(Nc1ccc(S(=O)(=O)Nc2cc(C)on2)cc1)(C(=O)OCC)C(F)(F)F (configuration not stated) | 2.61% | 0.164 µM [rising, full curve, poor fit] |  |
| COC(=O)c1c(C(=O)OC)c(-c2ccc(C(C)(C)C)cc2)n2c1CS(=O)C2 (configuration not stated) |  | 3.26 µM [rising, partial curve] | 4.11 µM [rising, single point] |
| N#Cc1ccccc1NC(=O)CSc1nnc(-c2ccccc2O)n1-c1ccccc1 | -6.17% | 23.1 µM [rising, partial curve, poor fit] |  |
| Cc1ccc(-c2nn3c(C)nnc3s2)cc1NCc1c(F)cccc1Cl | -33.5% | 1.46 µM [rising, full curve, poor fit] | 29.1 µM [falling, single point] |
| CN1CCN(CCNC(=O)c2cn(Cc3ccccc3F)nn2)CC1 | 15.4% |  |  |
| CCOC(=O)C1CCN(C(=O)CSCCSCC(=O)N2CCC(C(=O)OCC)CC2)CC1 | 39.4% | 16.4 µM [rising, partial curve] | 4.11 µM [rising, partial curve, poor fit] |
| CCCCn1c(N)c(N(CC(C)C)C(=O)c2ccc(-c3ccc([N+](=O)[O-])cc3)o2)c(=O)[nH]c1=O | -9.43% | 16.4 µM [falling, single point] |  |
| CCCc1cc(=O)oc2cc(OCc3ccc(C(=O)O)o3)ccc12 | 14.5% | 6.51 µM [falling, single point] |  |

In a second layout: results already given
SMILES | cell number change | AC50 [1] | AC50 [2]
O=C(c1cn(-c2ccccc2)nc1-c1cccnc1)N1CCN(S(=O)(=O)c2ccccc2F)CC1 | -27.4% |  | 
c1cc(-c2nnc3sc(C4CCCCC4)nn23)ccn1 | -9.22% |  | 
CCOC(=O)C1=CC[C@]2(C)c3c(c4ccccc4n3C)C(=O)C1N2C | 11% | 29.1 µM [falling, single point] | 
COc1ccc(-c2noc(CCC(=O)NCCCN3CCC(Cc4ccccc4)CC3)n2)cc1 | -141% | 0.58 µM [falling, single point] | 3.66 µM [falling, partial curve]
